Results on one substance are retold here after paper PMC11215771.

Protein sequences, listed by entry. Tags and fused reporters are not part of them. Lines headed by an entry give the natural chain unless they say otherwise; changes in a name come on top. Chains listed by the source or under a name are the forms on record and can include a tag or linker. Residues count along the entry.
human BACE1 (β-site of APP cleaving enzyme 1), wild type, untagged, expressed in HEK293T cells (P56817, residues 46-501): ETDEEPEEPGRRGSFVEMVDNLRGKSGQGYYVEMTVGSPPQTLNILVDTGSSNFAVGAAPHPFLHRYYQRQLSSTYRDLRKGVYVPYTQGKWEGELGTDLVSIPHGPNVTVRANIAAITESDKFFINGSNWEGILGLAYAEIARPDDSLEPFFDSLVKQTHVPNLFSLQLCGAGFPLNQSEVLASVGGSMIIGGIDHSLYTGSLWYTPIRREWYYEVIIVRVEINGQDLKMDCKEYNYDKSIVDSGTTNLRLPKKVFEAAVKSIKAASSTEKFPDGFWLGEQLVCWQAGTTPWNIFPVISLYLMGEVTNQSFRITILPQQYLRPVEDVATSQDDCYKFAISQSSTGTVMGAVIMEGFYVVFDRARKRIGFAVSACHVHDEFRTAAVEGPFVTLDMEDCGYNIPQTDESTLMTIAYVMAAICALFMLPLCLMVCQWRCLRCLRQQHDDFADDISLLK
human BACE1 D289N (proteolytically inactive variant), untagged, expressed in HEK293T cells (P56817-1, form named): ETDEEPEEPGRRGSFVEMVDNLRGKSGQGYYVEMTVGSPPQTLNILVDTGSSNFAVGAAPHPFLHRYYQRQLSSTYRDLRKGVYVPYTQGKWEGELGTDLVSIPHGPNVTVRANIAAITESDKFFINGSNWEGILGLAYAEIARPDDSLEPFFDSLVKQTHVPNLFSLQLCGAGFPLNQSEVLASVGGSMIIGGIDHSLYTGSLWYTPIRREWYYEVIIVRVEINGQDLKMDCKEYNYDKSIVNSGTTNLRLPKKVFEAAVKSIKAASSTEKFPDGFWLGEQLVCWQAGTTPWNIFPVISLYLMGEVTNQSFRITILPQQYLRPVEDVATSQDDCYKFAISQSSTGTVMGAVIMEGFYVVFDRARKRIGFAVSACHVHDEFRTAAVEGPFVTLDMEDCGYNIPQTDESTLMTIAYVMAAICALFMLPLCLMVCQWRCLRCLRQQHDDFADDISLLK

Results are given in words; binding and its absence hold for the method and conditions named. In cells and extracts the contact can be indirect. Some results given as binding are weak or reduced against the parent protein; the word gives no strength.

The test deals with human BACE1 (β-site of APP cleaving enzyme 1), wild type, untagged, expressed in HEK293T cells (human) (UniProt P56817).

As to “human BACE1 D289N (proteolytically inactive variant), untagged, expressed in HEK293T cells (from UniProt P56817-1 46-501) (enzyme)”, the binding result is “binds”.
